For test [1], the target named is C. elegans SAR-1 (C. elegans) (UniProt Q23445). Description: SEC-MALS; size-exclusion column equilibrated in 500 uM GTP or 500 uM GDP, coupled to three-angle light scattering and refractive index detectors; flow 0.5 ml/min; Sar1 buffer (25 mM HEPES pH 7.2, 100 mM NaCl, 1 mM MgCl2); both purified.
Test [2] addresses S. cerevisiae Sar1p (S. cerevisiae) (UniProt P20606). Described as above.

The chains behind the UniProt entries cited, without tags or fusion partners.
UniProt Q23445: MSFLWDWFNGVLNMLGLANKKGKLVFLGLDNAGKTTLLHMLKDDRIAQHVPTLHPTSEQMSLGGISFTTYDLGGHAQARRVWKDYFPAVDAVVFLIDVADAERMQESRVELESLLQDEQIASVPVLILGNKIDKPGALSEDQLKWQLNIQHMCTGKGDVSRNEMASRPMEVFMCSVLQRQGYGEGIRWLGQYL
UniProt P20606: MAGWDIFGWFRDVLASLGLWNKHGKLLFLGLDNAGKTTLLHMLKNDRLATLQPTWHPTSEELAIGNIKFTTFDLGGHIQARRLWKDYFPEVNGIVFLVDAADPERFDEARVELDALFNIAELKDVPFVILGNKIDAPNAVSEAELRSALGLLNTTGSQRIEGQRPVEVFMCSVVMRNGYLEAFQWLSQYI

No constants are given. Whether binding was seen depends on the method and setting. Some results given as binding are weak or reduced against the parent protein; the word gives no strength.

As for “C. elegans SAR-1 (from UniProt Q23445 1-193)”, the binding entry in test [1] was “binds weakly”.

As for “S. cerevisiae Sar1p (from UniProt P20606 1-190)”, in test [2], the binding entry is recorded as “binds weakly”.

(Values after paper PMC4714187.)
